The whole screen tested about 320,000 compounds, of which about 22,000 (6.9%) were called active. This list was built around the results that the source calls inconclusive (neither active nor inactive); the mix of calls is not that of the screen. Calls follow the shape of the dose curve; as a rule, active = well fitted inhibition curve with a large enough effect; inconclusive = small, poorly fitted or top-dose-only effect, or another doubt; inactive = no such curve, though single readings can be large or run the other way. A potency beside an inconclusive call is a rough fit, not a confirmed value.
Experiment: Primary qHTS for delayed death inhibitors of the malarial parasite plastid, 96 hour incubation
Settings: P. falciparum luciferase reporter growth; series mostly up to 28.7 µM; activity change, negative = inhibition: at the top concentration
Method in brief: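 Compounds incubated with erythrocytes infected by luciferase-expressing P. falciparum (2% hematocrit, 0.05% parasitemia final) for 96 hours, 37 C in 5% CO2. Growth inhibition scored as decreased luciferase luminescence.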
With `COc1ccc(S(=O)(=O)NNc2nc(C)cc(C)n2)cc1Br` the “activity change, negative = inhibition” value was inactive: 9.66%. With `C[C@@H](OC(=O)N1CCCCC1)[C@H]1O[C@]2(C)CCCC[C@H]1O2` the “activity change, negative = inhibition” value was inactive: 52.5%. For `CCc1cccc(OCC(O)Cn2c(N3CCCCC3)nc3c2c(=O)[nH]c(=O)n3C)c1` (stereo not drawn), the Potency was inconclusive: 18.5 µM [inhibitor, single point]. For `COc1ccc(S(=O)(=O)NCC(c2cccnc2)N2CCN(Cc3ccccc3)CC2)cc1C` (stereo not drawn), the Potency was inconclusive: 1.65 µM [inhibitor, full curve]. In the case of `O=C1CC(C(=O)Nc2ccc(F)c(Cl)c2)N=C(N2CCCCC2)N1` (stereo not drawn), the Potency was inconclusive: 0.928 µM [inhibitor, full curve, poor fit]. In the case of `CCOC(=O)c1c(C)[nH]c(C)c1C(=O)COC(=O)c1c(OC)cccc1OC`, the Potency was inconclusive: 5.22 µM [inhibitor, single point]. With `CCOc1cc(CNc2ccc(N(C)C)cc2)cc(Br)c1OCC(=O)NC(C)(C)C` the Potency was inconclusive: 18.5 µM [inhibitor, partial curve, poor fit]. With `CC1CCC(NC(=O)Cn2cc3c(n2)CCCC3)CC1` (stereo not drawn) the Potency was inconclusive: 10.4 µM [inhibitor, single point]. With `COc1ccc(COc2cc(-c3cccc(OC)c3)nc3ccc(NC(=O)c4cccnc4)cc23)cc1` the Potency was active: 2.33 µM. For `CC1=CC(c2ccc(Cl)cc2)n2nc(N3C(=O)CCC3=O)nc2N1` (stereo not drawn), the “activity change, negative = inhibition” value was inactive: 81.7%. For `N#CCCN1CCN(S(=O)(=O)c2ccc(S(=O)(=O)NCc3ccccc3)cc2)CC1`, the Potency was inconclusive: 10.4 µM [inhibitor, single point]. For `O=C(NCCN1CCOCC1)c1cc2ccccc2oc1=O`, the Potency was inconclusive: 18.5 µM [inhibitor, single point]. With `CCN1CCN(c2ccc(S(=O)(=O)N3CCOCC3)cc2NC(=O)/C=C/c2ccc(OC)c(OC)c2)CC1` the Potency was inconclusive: 10.4 µM [inhibitor, partial curve, poor fit]. With `CCOC(=O)[C@@H]1[C@H]2COc3ccc(Br)cc3[C@H]2N2C(=O)N(c3cccc(Cl)c3)C(=O)[C@]12C` the Potency was inconclusive: 0.0029 µM [inhibitor, full curve, poor fit]. For `Cc1cc(C)c(S(=O)(=O)N2CCOC2CNC(=O)C(=O)NCc2ccncc2)c(C)c1` (stereo not drawn), the “activity change, negative = inhibition” value was inactive: 0.181%. In the case of `Cc1cc(C)cc(NC(=O)Cc2ccc(S(=O)(=O)N3CCCC3)s2)c1`, the Potency was inconclusive: 13.1 µM [inhibitor, single point]. In the case of `COc1ccc(Cl)cc1NC(=O)c1nnn(CC(=O)Nc2ccc3c(c2)OCO3)c1N`, the Potency was active: 14.7 µM. With `CCN(Cc1ccccc1)S(=O)(=O)c1cc2[nH]c(=O)c(=O)[nH]c2cc1C` the Potency was inconclusive: 18.5 µM [inhibitor, single point]. With `CSc1ccccc1C(=O)C1CCCN(C(=O)c2cc(C(C)C)no2)C1` (stereo not drawn) the “activity change, negative = inhibition” value was inactive: -7.67%. For `C=CCO/N=C(\C)c1c(O)c(C)c(-c2ccccc2)n(-c2ccccc2)c1=O`, the Potency was inconclusive: 14.7 µM [inhibitor, single point]. With `COc1ccc(-n2c(SCC(=O)Nc3cc(C(=O)O)ccc3C)nc3ccccc3c2=O)cc1Cl` the Potency was inconclusive: 9.28 µM [inhibitor, partial curve, poor fit]. For `CCOc1ccc(/C=C/c2c([N+](=O)[O-])c(=O)n(C)c(=O)n2C)cc1`, the “activity change, negative = inhibition” value was inactive: 0.983%. With `Cc1sc2c(c1C)C(=O)/C(=C\Nc1ccncc1)S(=O)(=O)N2C` the “activity change, negative = inhibition” value was inactive: 81%. In the case of `COc1ccc(C)cc1NC(=O)Nc1ccncc1`, the Potency was inconclusive: 3.29 µM [inhibitor, partial curve, poor fit]. With `Cc1cc(=O)oc2cc(OC(=O)c3ccco3)ccc12` the “activity change, negative = inhibition” value was inactive: 25.4%. For `CCS(=O)(=O)c1ccc(C(=O)Nc2ccccc2)c(Cl)c1Cl`, the Potency was inconclusive: 4.15 µM [inhibitor, full curve, poor fit]. With `CN(Cc1ccccc1)S(=O)(=O)c1cn(C)cn1` the “activity change, negative = inhibition” value was inactive: 28%. For `CN(C)CCN(C(=O)/C=C/c1cccs1)c1nc2c(F)cc(F)cc2s1`, the Potency was inconclusive: 13.1 µM [inhibitor, single point]. For `COc1cc2c(cc1OC)C(c1ccccc1)N(C(=O)CSCC(=O)O)CC2` (stereo not drawn), the Potency was inconclusive: 18.5 µM [inhibitor, single point]. In the case of `CC(C)(C)c1ccc(C(=O)Nc2ccc(CN3CCS(=O)(=O)CC3)cc2)cc1`, the Potency was inconclusive: 4.15 µM [inhibitor, single point]. With `CC1CC(C(F)(F)C(F)(F)F)n2nc(C(=O)O)cc2N1` (stereo not drawn) the Potency was inconclusive: 16.5 µM [inhibitor, single point]. With `O=C(N/C(=C\c1ccc(Br)cc1)C(=O)N1CCOCC1)c1ccco1` the “activity change, negative = inhibition” value was inactive: 0.615%. With `Cc1snc(S(=O)(=O)Cc2ccccc2Cl)c1C#N` the “activity change, negative = inhibition” value was inactive: 3.37%. With `COCC(=O)N(Cc1cc2ccc(C)cc2[nH]c1=O)c1ccc(C)cc1C` the Potency was inconclusive: 10.4 µM [inhibitor, single point]. In the case of `CC(C)CN(C(=O)c1ccc(-n2cncn2)c([N+](=O)[O-])c1)C1CCS(=O)(=O)C1` (stereo not drawn), the “activity change, negative = inhibition” value was inactive: 13%. In the case of `O=C(CSc1ccc(S(=O)(=O)N2CCCCC2)cn1)Nc1ccccc1Br`, the Potency was inconclusive: 20.8 µM [inhibitor, partial curve, poor fit]. In the case of `COc1ccc(NC(=O)CC(c2ccc(F)cc2)c2ccc(OC)cc2)cc1` (stereo not drawn), the Potency was inconclusive: 18.5 µM [inhibitor, single point]. In the case of `O=C(CCC(=O)N1CCN(c2cccc(Cl)c2)CC1)N1CCN(c2ccccc2)CC1`, the Potency was inconclusive: 18.5 µM [inhibitor, single point]. For `COc1ccc(NC(=O)C2CCN(c3ncnc4c3nc3n4CCCCC3)CC2)c(OC)c1`, the Potency was inconclusive: 11.7 µM [inhibitor, partial curve, poor fit]. For `Cc1ccc(CNC(=O)C2(S(=O)(=O)c3ccc(C)cc3)CC2)cc1`, the “activity change, negative = inhibition” value was inactive: 4.84%. For `O=[N+]([O-])c1cccc(/C([O-])=C(/C(=S)Nc2cccc3ccccc23)[n+]2ccccc2)c1`, the Potency was inconclusive: 2.62 µM [inhibitor, partial curve, poor fit]. In the case of `CC1(C)Cc2c(C#N)c(SCC(=O)c3ccccc3)nc(N3CCOCC3)c2CS1`, the Potency was inconclusive: 1.31 µM [inhibitor, full curve]. In the case of `COc1ccccc1NC(=S)NNC(=O)c1c(Cl)c(C)nn1C`, the Potency was inconclusive: 0.828 µM [inhibitor, partial curve, poor fit]. In the case of `COc1cc([C@H](Cc2ccccc2)NC(C)=O)oc(=O)c1`, the Potency was active: 2.94 µM. For `Oc1c(Br)cc(Br)cc1/C=N/Nc1ccc(Cl)nn1`, the Potency was inconclusive: 0.37 µM [inhibitor, full curve]. In the case of `COC(=O)Cc1ccc(OCC(=O)NC2CCCC2)cc1`, the “activity change, negative = inhibition” value was inactive: 15.2%. In the case of `O=C(NNC(=O)c1ccccc1O)c1ccc(S(=O)(=O)Nc2ccccc2)cc1`, the Potency was inconclusive: 18.5 µM [inhibitor, single point]. With `Cc1cccc(-c2noc(CCCC(=O)NC3CCCCC3)n2)c1` the “activity change, negative = inhibition” value was inactive: 12.4%. In the case of `CCOc1ccc(S(=O)(=O)N2CCCC(C(=O)N3CCCC3)C2)cc1` (stereo not drawn), the “activity change, negative = inhibition” value was inactive: 98.8%. In the case of `Cc1ccc(CNC(=O)C2CCCN2C(=O)Nc2cccc(Cl)c2)cc1` (stereo not drawn), the Potency was inconclusive: 4.15 µM [inhibitor, single point]. With `CSc1ccc(CN(C)C(=O)c2ccc(S(=O)(=O)Nc3ccccc3)cc2)cc1` the Potency was inconclusive: 11.7 µM [inhibitor, partial curve, poor fit]. For `CCOC(=O)C1CCN(C(=O)c2cn(-c3ccccc3)nc2-c2cccnc2)CC1`, the “activity change, negative = inhibition” value was inactive: -18%. With `CCOc1ccc(NC(=O)CSc2nc(=O)n(Cc3cccnc3)c3c2CCC3)cc1` the Potency was inconclusive: 3.29 µM [inhibitor, partial curve]. For `O=c1[nH]n2c(C(F)(F)F)cc(C3CC3)nc2c1N=Nc1ccccc1`, the Potency was inconclusive: 0.0329 µM [inhibitor, full curve, poor fit]. With `Cc1cc(=O)c2cc(C(=O)c3ccccc3)ccc2[nH]1` the Potency was inconclusive: 2.08 µM [inhibitor, full curve]. For `CCCCCc1cc(=O)oc2c(C(CCN3CCCC(C)C3)c3ccc(OC)cc3)c(OC)cc(OC)c12` (stereo not drawn), the Potency was active: 3.29 µM. In the case of `COc1ccc(C)cc1NC(=O)c1ccccc1NS(=O)(=O)c1cccc2cccnc12`, the “activity change, negative = inhibition” value was inactive: -35.8%. For `COc1ccc(C(CC(=O)O)NC(=O)COc2cc(C)ccc2C)cc1OC` (stereo not drawn), the “activity change, negative = inhibition” value was inactive: -69.2%. In the case of `CC(NS(=O)(=O)c1ccc(OCC(=O)Nc2cccc([N+](=O)[O-])c2)cc1)c1ccccc1` (stereo not drawn), the “activity change, negative = inhibition” value was inactive: -33.9%. With `O=C1OCC(c2ccccc2)=C1c1ccc(S(=O)(=O)N2CCOCC2)s1` the “activity change, negative = inhibition” value was inactive: 0%. With `COc1ccc(-c2csc(Nc3ccccc3)[n+]2CC(O)c2ccc([N+](=O)[O-])cc2)cc1` (stereo not drawn) the Potency was active: 1.47 µM. For `CCC(=O)N1CCc2cc(Br)cc(S(=O)(=O)NCc3ccco3)c21`, the Potency was inconclusive: 9.28 µM [inhibitor, single point]. In the case of `Cc1ccc(-c2cc(C(=O)N3CC(C)CC(C)C3)c3ccccc3n2)o1` (stereo not drawn), the Potency was inconclusive: 0.0074 µM [inhibitor, full curve, poor fit]. In the case of `COc1ccc(C(=O)Nc2cnccn2)cc1[N+](=O)[O-]`, the Potency was inconclusive: 18.5 µM [inhibitor, single point]. In the case of `Cc1cc(/C=C2\SC(N)=NC2=O)c(C)n1-c1ccc(F)cc1`, the Potency was inconclusive: 10.4 µM [inhibitor, single point]. For `O=C(Cn1nnc(-c2ccccc2)n1)NC(=O)NC1CCCC1`, the “activity change, negative = inhibition” value was inactive: 16.9%. For `Oc1ccc(Cl)cc1CNCc1ccc(Cl)nc1`, the Potency was inconclusive: 5.22 µM [inhibitor, partial curve]. In the case of `COc1cc(OC)cc(-c2c(-c3cccs3)c3cc(-c4ccc(N(C)C)nc4)ccc3n2C)c1`, the Potency was inconclusive: 0.233 µM [inhibitor, full curve, poor fit].

From PubChem BioAssay AID504834 (National Center for Advancing Translational Sciences (NCATS), 2011)
% is scaled to controls: 0 for no effect and ±100 for the full control effect; potency is read from the fitted curve at half-maximal effect.
